# Experimental data as given in PubChem BioAssay AID330 (DTP/NCI, 2004).
# The list shows only some results of the screen, not a fair sample: it gathers tests that were run many times, whatever their T/C, doses with no T/C, and many T/C values between a quarter and a half above the control. Other doses and runs of a compound stand elsewhere. T/C is the treated group as % of the vehicle group. Some doses have a count of surviving animals in place of a T/C: the source files T/C as zero there, which appears to mark a toxic dose or a test without result, not a measured value. Some survivor counts are full or nearly so, which does not show that the dose was tolerated: the source hardly ever lists a survival T/C far under the control, and the zero likely stands for such cases as well. Survivors were counted at the toxicity check, usually on the fifth day, unless a day is given; later deaths do not show. Schedules are NCI's codes, taken here to give the interval after Q, in days (D) or hours (H), and the number of doses after X. Where survival is the endpoint, this PubChem deposit counts one and a half times the control or more as active, and values a quarter to a half above the control carry no call in these data; other NCI protocols may use other cut-offs. Some doses were run more than once; the values are given in rising order.
# Test system: P388 leukemia ip, CD2F1 mice, survival T/C
# Experiment: NCI In Vivo Anticancer Drug Screen. Data for tumor model P388 Leukemia (intraperitoneal) in CD2F1 (CDF1) mice
# Settings: T/C endpoint: median survival time, higher T/C = longer survival
# [1] = dose: 400.0 mg/kg/injection, schedule: Q01DX001 (ip), vehicle: Klucel (hydroxypropylcellulose) (HPC)
# [2] = dose: 200.0 mg/kg/injection, schedule: Q01DX005 (ip), vehicle: saline with Tween-80
# [3] = dose: 50.0 mg/kg/injection, schedule: Q01DX009 (ip), vehicle: water
# [4] = dose: 6.25 mg/kg/injection, schedule: Q01DX009 (ip), vehicle: saline with Tween-80
# [5] = dose: 12.5 mg/kg/injection, schedule: Q01DX009 (ip), vehicle: saline with Tween-80
# [6] = dose: 25.0 mg/kg/injection, schedule: Q01DX009 (ip), vehicle: saline with Tween-80
# [7] = dose: 50.0 mg/kg/injection, schedule: Q01DX009 (ip), vehicle: saline with Tween-80
# [8] = dose: 100.0 mg/kg/injection, schedule: Q01DX009 (ip), vehicle: saline with Tween-80
# [9] = dose: 200.0 mg/kg/injection, schedule: Q01DX009 (ip), vehicle: saline with Tween-80
# [10] = dose: 200.0 mg/kg/injection, schedule: Q01DX009 (ip), vehicle: Klucel (hydroxypropylcellulose) (HPC)
# [11] = dose: 400.0 mg/kg/injection, schedule: Q04DX002 (ip), vehicle: saline with Tween-80
# [12] = dose: 100.0 mg/kg/injection, schedule: Q01DX005 (ip), vehicle: saline with Tween-80
# [13] = dose: 1600.0 mg/kg/injection, schedule: Q04DX003 (oral), vehicle: saline with Tween-80
smiles,measurement,setting,value
C1CC2CC1C13OC1C1(CC1)C1OC213 (stereo unspecified),T/C,"dose: 200.0 mg/kg/injection, schedule: Q01DX001 (ip), vehicle: Klucel (hydroxypropylcellulose) (HPC)",133 % of control
same,T/C,[1],131 % of control
same,survivor count,"dose: 800.0 mg/kg/injection, schedule: Q01DX001 (ip), vehicle: Klucel (hydroxypropylcellulose) (HPC)",3 of 6
C=CC1CN2CCC1CC2C(O)c1ccnc2ccc(OC)cc12 (stereo unspecified),survivor count,[2],2 of 6
O=NNc1cnc(-c2ccccc2)c(-c2ccccc2)n1,T/C,[3],134 and 145 % of control
C=C1C(=O)CCC1C#N (stereo unspecified),survivor count,"dose: 400.0 mg/kg/injection, schedule: Q04DX002 (ip), vehicle: suspension in saline",1 of 6
ClCCN(CCCl)c1ccc(N=Cc2ccccc2)cc1,T/C,[4],133 % of control
same,survivor count,[4],6 of 6
same,survivor count,[5],6 of 6
same,survivor count,[6],4 of 6
same,survivor count,[7],2 of 6
same,survivor count,[8],0 of 6
same,survivor count,[9],0 of 6
O=C1c2ccccc2C(=O)N1Cc1cccc(I)c1,survivor count,"dose: 240.0 mg/kg/injection, schedule: Q01DX005 (ip), vehicle: Klucel (hydroxypropylcellulose) (HPC)",6 of 6
COc1cc(C(=O)CC(=O)Cc2ccc3ccccc3n2)cc(OC)c1OC,survivor count,"dose: 15.0 mg/kg/injection, schedule: Q01DX005 (ip), vehicle: saline with Tween-80",6 of 6
same,survivor count,"dose: 30.0 mg/kg/injection, schedule: Q01DX005 (ip), vehicle: saline with Tween-80",6 of 6
same,survivor count,"dose: 60.0 mg/kg/injection, schedule: Q01DX005 (ip), vehicle: saline with Tween-80",6 of 6
C#CCN(C)/N=N/c1nc[nH]c1C(N)=O,survivor count,[10],5 of 6
COc1nc(N(C)C)c2cnn(C3CCCCO3)c2n1 (stereo unspecified),survivor count,"dose: 50.0 mg/kg/injection, schedule: Q04DX002 (ip), vehicle: saline with Tween-80",5 of 6
same,survivor count,"dose: 100.0 mg/kg/injection, schedule: Q04DX002 (ip), vehicle: saline with Tween-80",1 of 6
same,survivor count,"dose: 200.0 mg/kg/injection, schedule: Q04DX002 (ip), vehicle: saline with Tween-80",1 of 6
same,survivor count,[11],3 of 6
N#C/C(=C\c1ccco1)C(=O)c1ccco1,survivor count,[8],6 of 6
same,survivor count,[9],6 of 6
C=C1C(=O)OC2CC3(C)C=CC(=O)C(=C)C3CC12 (stereo unspecified),survivor count,"dose: 50.0 mg/kg/injection, schedule: Q04DX003 (ip), vehicle: Klucel (hydroxypropylcellulose) (HPC)",4 of 6
same,survivor count,"dose: 100.0 mg/kg/injection, schedule: Q04DX003 (ip), vehicle: Klucel (hydroxypropylcellulose) (HPC)",0 of 6
same,survivor count,"dose: 200.0 mg/kg/injection, schedule: Q04DX003 (ip), vehicle: Klucel (hydroxypropylcellulose) (HPC)",0 of 6
same,survivor count,"dose: 400.0 mg/kg/injection, schedule: Q04DX003 (ip), vehicle: Klucel (hydroxypropylcellulose) (HPC)",0 of 6
CC(C)(C)C(S)CS (stereo unspecified),survivor count,[12],0 of 6
same,survivor count,[2],0 of 6
CCOC(=O)/C=C(\Br)C(=O)OCC,survivor count,[5],2 of 6
same,survivor count,[6],0 of 6
same,survivor count,[7],0 of 6
same,survivor count,[8],0 of 6
same,survivor count,[9],0 of 6
N#Cc1[nH]nc2nc[nH]c(=O)c12,survivor count,"dose: 400.0 mg/kg/injection, schedule: Q04DX002 (ip), vehicle: water",1 of 6
ClC(Cl)CN(Cc1ccccc1)c1ncc[nH]1,survivor count,"dose: 100.0 mg/kg/injection, schedule: Q01DX001 (ip), vehicle: saline with Tween-80",2 of 6
same,survivor count,"dose: 200.0 mg/kg/injection, schedule: Q01DX001 (ip), vehicle: saline with Tween-80",0 of 6
same,survivor count,"dose: 400.0 mg/kg/injection, schedule: Q01DX001 (ip), vehicle: saline with Tween-80",0 of 6
C[n+]1ccc(CC(Cc2cc[n+](C)cc2)c2ccc(Br)cc2)cc1,survivor count,"dose: 50.0 mg/kg/injection, schedule: Q01DX009 (ip), vehicle: Klucel (hydroxypropylcellulose) (HPC)",0 of 6
same,survivor count,"dose: 100.0 mg/kg/injection, schedule: Q01DX009 (ip), vehicle: Klucel (hydroxypropylcellulose) (HPC)",0 of 6
same,survivor count,[10],0 of 6
CNc1c(NC)n(C)c(=O)n(C)c1=O,T/C,"dose: 400.0 mg/kg/injection, schedule: Q01DX009 (ip), vehicle: saline",125 % of control
C=CCN(CC=C)C(CC(=O)C(C)(C)C)=NCC,survivor count,"dose: 100.0 mg/kg/injection, schedule: Q01DX009 (ip), vehicle: saline",0 of 6
same,survivor count,"dose: 200.0 mg/kg/injection, schedule: Q01DX009 (ip), vehicle: saline",0 of 6
O=c1cc(-c2ccccc2)c2ccc(O)c(CN(CCO)CCO)c2o1,survivor count,[11],6 of 6
O=[N+]([O-])c1ccc(-c2csc(=[N+]3CCCCC3)s2)cc1,T/C,"dose: 12.5 mg/kg/injection, schedule: Q01DX009 (ip), vehicle: water",126 % of control
same,T/C,"dose: 25.0 mg/kg/injection, schedule: Q01DX009 (ip), vehicle: water",133 and 137 % of control
same,T/C,[3],140 % of control
same,survivor count,[3],5 of 6
same,survivor count,"dose: 100.0 mg/kg/injection, schedule: Q01DX009 (ip), vehicle: water",1 of 6
O=C(O)CSc1ccc2c3c(cccc13)C(=O)c1ccccc1-2,survivor count,"dose: 25.0 mg/kg/injection, schedule: Q01DX009 (ip), vehicle: saline",3 of 6
O=C1NC(=O)C(F)(F)C(O)N1 (stereo unspecified),T/C,"dose: 28.0 mg/kg/injection, schedule: Q01DX009 (ip), vehicle: saline",140 % of control
same,T/C,"dose: 40.0 mg/kg/injection, schedule: Q01DX009 (ip), vehicle: saline",145 % of control
same,T/C,"dose: 65.0 mg/kg/injection, schedule: Q01DX009 (ip), vehicle: saline sonified",145 % of control
CC1=C(C)C(=O)c2c(c(O)c3ccccc3c2Cl)C1=O,survivor count,"dose: 6.25 mg/kg/injection, schedule: Q01DX005 (ip), vehicle: saline",6 of 6
same,survivor count,"dose: 12.5 mg/kg/injection, schedule: Q01DX005 (ip), vehicle: saline",6 of 6
same,survivor count,"dose: 25.0 mg/kg/injection, schedule: Q01DX005 (ip), vehicle: saline",6 of 6
same,survivor count,"dose: 50.0 mg/kg/injection, schedule: Q01DX005 (ip), vehicle: saline with Tween-80",6 of 6
same,survivor count,[12],6 of 6
c1ccc(-c2ccc(-c3cn4c(n3)SCC4)cc2)cc1,survivor count,"dose: 100.0 mg/kg/injection, schedule: Q01DX001 (ip), vehicle: Klucel (hydroxypropylcellulose) (HPC)",5 of 6
same,survivor count,[1],6 of 6
BrC1=CC(Br)=C2N=C(C(Br)(Br)Br)N=C3N=C(C(Br)(Br)Br)N=C1N32,survivor count,"dose: 120.0 mg/kg/injection, schedule: Q01DX005 (ip), vehicle: Klucel + Tween-80",2 of 6
same,survivor count,"dose: 240.0 mg/kg/injection, schedule: Q01DX005 (ip), vehicle: Klucel + Tween-80",0 of 6
Cc1c2cnccc2c(C)c2c1c1c(C)c3cnccc3c(C)c1n2C,survivor count,"dose: 200.0 mg/kg/injection, schedule: Q04DX002 (ip), vehicle: distilled water + Tween-80",6 of 6
CNC(=O)Nc1nc2ccc([N+](=O)[O-])cc2[nH]1,T/C,[13],140 % of control
same,survivor count,[13],6 of 6
same,survivor count,"dose: 2400.0 mg/kg/injection, schedule: Q04DX003 (oral), vehicle: saline with Tween-80",5 of 6
S=c1[nH]cc2cnccn12,survivor count,"dose: 400.0 mg/kg/injection, schedule: Q04DX003 (ip), vehicle: saline with Tween-80",0 of 6
CN(N=O)C(=O)Nc1ccc(C(=O)O)cc1,survivor count,[8],6 of 6
same,survivor count,"dose: 150.0 mg/kg/injection, schedule: Q04DX003 (ip), vehicle: saline with Tween-80",5 of 6
